Test results as given in article PMC9308790.
Results are given in words; binding and its absence hold for the method and conditions named. For some of these results: In cells and extracts the contact can be indirect. Some binding calls cover weakened binding; strength is not graded here. One block for each molecule: values may come before it.

Sequences of proteins named here, by UniProt entry; tags and fusion partners are left off.
UniProt P26450: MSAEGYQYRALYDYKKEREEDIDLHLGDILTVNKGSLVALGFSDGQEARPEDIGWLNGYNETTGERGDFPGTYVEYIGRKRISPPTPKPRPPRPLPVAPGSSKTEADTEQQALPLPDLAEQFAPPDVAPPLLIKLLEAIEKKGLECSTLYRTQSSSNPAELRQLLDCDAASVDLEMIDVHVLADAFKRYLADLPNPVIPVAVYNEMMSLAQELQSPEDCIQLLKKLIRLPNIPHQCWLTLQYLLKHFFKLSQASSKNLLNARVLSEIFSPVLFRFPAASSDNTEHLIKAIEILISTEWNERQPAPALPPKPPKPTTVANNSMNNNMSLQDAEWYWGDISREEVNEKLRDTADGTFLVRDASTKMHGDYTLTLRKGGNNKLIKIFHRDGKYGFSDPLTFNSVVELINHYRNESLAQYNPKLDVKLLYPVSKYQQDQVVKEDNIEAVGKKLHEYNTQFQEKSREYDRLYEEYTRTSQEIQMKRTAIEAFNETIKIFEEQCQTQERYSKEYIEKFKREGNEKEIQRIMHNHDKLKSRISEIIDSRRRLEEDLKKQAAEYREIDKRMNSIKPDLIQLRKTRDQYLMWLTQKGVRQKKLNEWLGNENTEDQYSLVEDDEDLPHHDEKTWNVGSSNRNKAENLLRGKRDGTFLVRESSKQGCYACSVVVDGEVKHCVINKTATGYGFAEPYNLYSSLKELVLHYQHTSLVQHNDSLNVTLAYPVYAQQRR
UniProt P27986: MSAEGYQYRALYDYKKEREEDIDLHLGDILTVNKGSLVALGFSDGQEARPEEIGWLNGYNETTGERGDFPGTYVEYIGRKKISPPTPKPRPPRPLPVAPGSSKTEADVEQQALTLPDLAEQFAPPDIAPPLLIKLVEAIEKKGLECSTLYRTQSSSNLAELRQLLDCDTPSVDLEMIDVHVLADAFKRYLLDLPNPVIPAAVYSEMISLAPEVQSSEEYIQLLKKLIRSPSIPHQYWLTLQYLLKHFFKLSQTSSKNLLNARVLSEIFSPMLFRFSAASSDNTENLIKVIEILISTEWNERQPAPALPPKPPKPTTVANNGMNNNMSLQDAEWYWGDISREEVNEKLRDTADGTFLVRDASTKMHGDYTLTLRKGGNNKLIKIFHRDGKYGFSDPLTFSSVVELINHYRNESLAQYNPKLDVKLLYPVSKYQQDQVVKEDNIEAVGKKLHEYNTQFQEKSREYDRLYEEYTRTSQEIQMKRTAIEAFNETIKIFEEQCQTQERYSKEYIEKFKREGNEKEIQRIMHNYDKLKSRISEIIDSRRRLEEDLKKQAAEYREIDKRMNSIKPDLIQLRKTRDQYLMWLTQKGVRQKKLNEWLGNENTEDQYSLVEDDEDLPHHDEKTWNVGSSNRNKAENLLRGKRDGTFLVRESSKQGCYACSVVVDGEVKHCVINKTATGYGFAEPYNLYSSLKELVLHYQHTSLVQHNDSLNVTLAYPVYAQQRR
UniProt Q61510: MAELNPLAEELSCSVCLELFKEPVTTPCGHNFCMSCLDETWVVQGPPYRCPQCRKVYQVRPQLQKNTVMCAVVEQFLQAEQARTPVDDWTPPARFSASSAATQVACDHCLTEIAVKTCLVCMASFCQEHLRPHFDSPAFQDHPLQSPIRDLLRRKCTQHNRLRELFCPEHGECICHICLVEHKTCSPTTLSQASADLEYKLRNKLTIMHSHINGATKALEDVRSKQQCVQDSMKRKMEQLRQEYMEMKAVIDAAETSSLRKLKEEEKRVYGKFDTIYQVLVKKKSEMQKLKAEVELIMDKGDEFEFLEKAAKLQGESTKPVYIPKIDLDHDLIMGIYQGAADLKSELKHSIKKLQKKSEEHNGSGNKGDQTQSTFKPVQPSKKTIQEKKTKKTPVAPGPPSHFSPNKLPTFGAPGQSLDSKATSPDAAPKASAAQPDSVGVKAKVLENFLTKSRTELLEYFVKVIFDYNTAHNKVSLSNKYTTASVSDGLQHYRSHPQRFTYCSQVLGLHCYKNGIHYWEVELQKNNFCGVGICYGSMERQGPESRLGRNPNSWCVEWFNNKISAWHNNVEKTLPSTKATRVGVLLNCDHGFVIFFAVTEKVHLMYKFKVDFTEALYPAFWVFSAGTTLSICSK
UniProt Q14258: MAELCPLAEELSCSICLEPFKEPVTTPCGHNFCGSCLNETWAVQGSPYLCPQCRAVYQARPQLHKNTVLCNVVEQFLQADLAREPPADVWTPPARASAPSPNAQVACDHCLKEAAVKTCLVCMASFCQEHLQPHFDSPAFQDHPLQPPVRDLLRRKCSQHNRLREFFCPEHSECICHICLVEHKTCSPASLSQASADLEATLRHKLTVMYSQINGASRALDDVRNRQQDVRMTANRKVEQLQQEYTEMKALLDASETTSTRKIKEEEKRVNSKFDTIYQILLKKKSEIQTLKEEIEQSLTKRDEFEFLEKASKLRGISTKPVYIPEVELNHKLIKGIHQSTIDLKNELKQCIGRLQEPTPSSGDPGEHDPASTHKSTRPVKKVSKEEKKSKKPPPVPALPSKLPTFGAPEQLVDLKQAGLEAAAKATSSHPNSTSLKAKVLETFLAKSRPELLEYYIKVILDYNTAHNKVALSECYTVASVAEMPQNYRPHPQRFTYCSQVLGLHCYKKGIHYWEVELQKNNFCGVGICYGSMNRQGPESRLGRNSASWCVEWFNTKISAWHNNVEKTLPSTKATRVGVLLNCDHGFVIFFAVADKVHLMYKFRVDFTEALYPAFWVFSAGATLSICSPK

Assays:
[1] = molecular target: Glutathione S-transferase (GST)–fused p85α (UniProt P26450); test: pull-down; Pierce GST Protein Interaction Pull-Down Kit; purified GST-p85α (bait, about 150 ug) on the spin column at 4 °C for 30 min, His-TRIM25 (prey) incubated at 4 °C for 1 h; five washes; Coomassie blue staining or Western blot; both purified
[2] = molecular target: 3Flag-p85α (UniProt P26450); test: co-IP; Supplementary Fig. 7; cells and constructs not told in the text shown
[3] = molecular target: p85α, endogenous in HEK293T cells (human (endogenous in HEK293T)) (UniProt P27986); test: co-IP; endogenous proteins in HL-1 or HEK293T lysate; COIP buffer (50 mM Tris-HCl, 150 mM NaCl, 5 mM EDTA, 1% NP-40, pH 7.6); indicated antibody and Protein G agarose beads overnight at 4 °C; Western blot
[4] = molecular target: p85α (regulatory subunit of PI3K), endogenous in HL-1 cells (mouse (endogenous in HL-1)) (UniProt P26450); test: as above
[5] = molecular target: full-length p85α, overexpressed in HEK293 cells (UniProt P26450); test: co-IP; HEK293 cells overexpressing full-length or truncated TRIM25 or p85α; immunoprecipitated with the indicated antibody; Western blot
[6] = molecular target: p85α, partner of the TRIM25 truncates in HEK293 cells (Fig. 3c) (UniProt P27986); test: as above
[7] = molecular target: 3Flag-p85α (UniProt P26450); test: co-IP; 293T cells with XBP-1s and p85α-Flag, with or without DOX (1 uM); Flag immunoprecipitates blotted for Flag and XBP-1s

binding [1]: binds
Molecule: His-fused TRIM25 (from UniProt Q61510 1-634)

binding [2]: binds | binding [3]: binds
Molecule: TRIM25, endogenous in HEK293T cells (from UniProt Q14258 1-630)

binding [4]: binds
Molecule: TRIM25, endogenous in HL-1 cells (from UniProt Q61510 1-634)

binding [5]: binds
Molecule: TRIM25, partner of full-length and truncated p85α in HEK293 cells (Fig. 3d) (from UniProt Q14258 1-630)

binding [6]: binds
Molecule: full-length TRIM25, overexpressed in HEK293 cells (from UniProt Q61510 1-634)

binding [7]: binds
B1: XBP-1s (spliced form of XBP-1) (protein, UniProt P17861-2 1-376)
chain: MVVVAAAPNPADGTPKVLLLSGQPASAAGAPAGQALPLMVPAQRGASPEAASGGLPQARKRQRLTHLSPEEKALRRKLKNRVAAQTARDRKKARMSELEQQVVDLEEENQKLLLENQLLREKTHGLVVENQELRQRLGMDALVAEEEAEAKGNEVRPVAGSAESAAGAGPVVTPPEHLPMDSGGIDSSDSESDILLGILDNLDPVMFFKCPSPEPASLEELPEVYPEGPSSLPASLSLSVGTSSAKLEAINELIRFDHIYTKPLVLEIPSETESQANVVVKIEEAPLSPSENDHPEFIVSVKEEPVEDDLVPELGISNLLSSSHCPKPSSCLLDAYSDCGYGGSLSPFSDMSSLLGVNHSWEDTFANELFPQLISV
